Reference: PubChem BioAssay AID743448 (Peter MacCallum Cancer Centre, 2014)

- Aim: 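Test whether knock-downs sensitising to vorinostat hold across several colon lines but not etoposide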 (follow-up of hits)
- Cell system: four human colon cancer cell lines: HCT116-VR (vorinostat-resistant HCT116 derivative), SW480, SW620 and LIM1215
- Reagent: siRNA pool against human genes, 40 nM siRNA pool
- Time to read-out: drug added two days after transfection, read one day later
- Challenge: vorinostat 2.5 µM on one half of each plate, etoposide 5 µM on the other half
- Measured: 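Caspase 3/7 activity by luminescence and live-cell viability by fluorescence, each given as a ratio to mock-transfected wells and as a robust z-score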
- Direction: caspase ratio to mock: higher = more caspase activity than mock; viability ratio to mock: higher = more live cells than mock; caspase robust z-score: higher = more caspase activity, more apoptosis; viability robust z-score: higher = more live cells
- Call rule: 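a row is a hit if caspase relative to mock is 1.6 or above or viability relative to mock is 0.75 or below; wells dying heavily without drug are not called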
- Calls: active = caspase or viability hit in this panel; inactive = no change, or unhealthy well
In all, the deposit lists 106 reagents; this is an unselected part. 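Calls are per line and drug panel including etoposide, not vorinostat-specific; gene picks needed hits in two or more extra lines with vorinostat versus etoposide.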

Target gene	cell line and drug panel	caspase ratio to mock	viability ratio to mock	caspase robust z-score	viability robust z-score	activity call
GNG8 (GeneID 94235)	LIM1215 cells with etoposide	2.86	0.78	0.74	-0.96	inactive
GNG8 (GeneID 94235)	LIM1215 cells with vorinostat	3.06	0.82	1.24	-0.74	inactive
GNG8 (GeneID 94235)	SW480 cells with etoposide	4.23	0.78	1.7	-0.59	active
GNG8 (GeneID 94235)	SW480 cells with vorinostat	1.68	0.76	-0.07	-0.8	active
GNG8 (GeneID 94235)	SW620 cells with etoposide	1.55	0.64	0.84	-2.62	active
GNG8 (GeneID 94235)	SW620 cells with vorinostat	1.86	0.88	1.4	-0.26	active
GNG8 (GeneID 94235)	vorinostat-resistant HCT116 cells with etoposide	2.33	0.84	0.8	-0.59	active
GNG8 (GeneID 94235)	vorinostat-resistant HCT116 cells with vorinostat	2	0.67	-0.22	-1.54	active
RGS18 (GeneID 64407)	LIM1215 cells with etoposide	2.36	1.21	0.18	1.9	active
RGS18 (GeneID 64407)	LIM1215 cells with vorinostat	2.93	1.02	1.06	0.76	active
RGS18 (GeneID 64407)	SW480 cells with etoposide	0.97	1.12	-0.83	1.7	inactive
RGS18 (GeneID 64407)	SW480 cells with vorinostat	1.68	1.12	-0.06	1.57	active
RGS18 (GeneID 64407)	SW620 cells with etoposide	0.77	1.09	-0.94	2.03	inactive
RGS18 (GeneID 64407)	SW620 cells with vorinostat	1.62	1.05	0.75	0.99	active
RGS18 (GeneID 64407)	vorinostat-resistant HCT116 cells with etoposide	1.29	1.25	-0.58	1.92	inactive
RGS18 (GeneID 64407)	vorinostat-resistant HCT116 cells with vorinostat	2.67	1.24	0.55	2.02	active
VPS4A (GeneID 27183)	LIM1215 cells with etoposide	3.32	0.96	1.21	0.26	active
VPS4A (GeneID 27183)	LIM1215 cells with vorinostat	2.1	0.73	-0.01	-1.39	active
VPS4A (GeneID 27183)	SW480 cells with etoposide	4.51	0.68	1.89	-1.25	inactive
VPS4A (GeneID 27183)	SW480 cells with vorinostat	1.82	0.6	0.24	-1.82	inactive
VPS4A (GeneID 27183)	SW620 cells with etoposide	1.93	0.74	1.72	-1.56	active
VPS4A (GeneID 27183)	SW620 cells with vorinostat	1.5	0.54	0.4	-2.6	active
VPS4A (GeneID 27183)	vorinostat-resistant HCT116 cells with etoposide	2.59	0.92	1.17	-0.11	active
VPS4A (GeneID 27183)	vorinostat-resistant HCT116 cells with vorinostat	2.31	0.81	0.16	-0.68	active
INTS6L (GeneID 203522)	LIM1215 cells with etoposide	1.76	0.89	-0.4	-0.23	inactive
INTS6L (GeneID 203522)	LIM1215 cells with vorinostat	2.03	0.81	-0.08	-0.79	inactive
INTS6L (GeneID 203522)	SW480 cells with etoposide	1.13	0.8	-0.72	-0.51	inactive
INTS6L (GeneID 203522)	SW480 cells with vorinostat	1.32	0.84	-0.82	-0.22	inactive
INTS6L (GeneID 203522)	SW620 cells with etoposide	0.95	0.84	-0.48	-0.5	inactive
INTS6L (GeneID 203522)	SW620 cells with vorinostat	1.24	1.04	-0.34	0.87	inactive
INTS6L (GeneID 203522)	vorinostat-resistant HCT116 cells with etoposide	1.21	0.96	-0.7	0.18	inactive
INTS6L (GeneID 203522)	vorinostat-resistant HCT116 cells with vorinostat	2.2	1.04	0.1	0.79	active

The list goes on; the last 8 above are carried over.
Target gene	cell line and drug panel	caspase ratio to mock	viability ratio to mock	caspase robust z-score	viability robust z-score	activity call
INTS6L (GeneID 203522)	LIM1215 cells with etoposide	1.76	0.89	-0.4	-0.23	inactive
INTS6L (GeneID 203522)	LIM1215 cells with vorinostat	2.03	0.81	-0.08	-0.79	inactive
INTS6L (GeneID 203522)	SW480 cells with etoposide	1.13	0.8	-0.72	-0.51	inactive
INTS6L (GeneID 203522)	SW480 cells with vorinostat	1.32	0.84	-0.82	-0.22	inactive
INTS6L (GeneID 203522)	SW620 cells with etoposide	0.95	0.84	-0.48	-0.5	inactive
INTS6L (GeneID 203522)	SW620 cells with vorinostat	1.24	1.04	-0.34	0.87	inactive
INTS6L (GeneID 203522)	vorinostat-resistant HCT116 cells with etoposide	1.21	0.96	-0.7	0.18	inactive
INTS6L (GeneID 203522)	vorinostat-resistant HCT116 cells with vorinostat	2.2	1.04	0.1	0.79	active
TDP2 (GeneID 51567)	LIM1215 cells with etoposide	3.04	0.92	0.99	-0.05	active
TDP2 (GeneID 51567)	LIM1215 cells with vorinostat	3.33	0.8	1.53	-0.84	active
TDP2 (GeneID 51567)	SW480 cells with etoposide	2.62	1	0.44	0.84	active
TDP2 (GeneID 51567)	SW480 cells with vorinostat	2.03	0.83	0.76	-0.51	active
TDP2 (GeneID 51567)	SW620 cells with etoposide	1.07	0.86	-0.22	-0.29	inactive
TDP2 (GeneID 51567)	SW620 cells with vorinostat	1.36	0.66	0.01	-1.78	active
TDP2 (GeneID 51567)	vorinostat-resistant HCT116 cells with etoposide	1.97	1.04	0.33	0.73	active
TDP2 (GeneID 51567)	vorinostat-resistant HCT116 cells with vorinostat	2.55	1	0.46	0.55	active
H1-5 (GeneID 3009)	LIM1215 cells with etoposide	2.77	0.84	0.64	-0.57	active
H1-5 (GeneID 3009)	LIM1215 cells with vorinostat	2.5	0.92	0.44	0.05	active
H1-5 (GeneID 3009)	SW480 cells with etoposide	3.49	0.54	1.1	-2.13	active
H1-5 (GeneID 3009)	SW480 cells with vorinostat	1.81	0.52	0.2	-2.29	inactive
H1-5 (GeneID 3009)	SW620 cells with etoposide	1.6	0.65	0.96	-2.45	active
H1-5 (GeneID 3009)	SW620 cells with vorinostat	1.31	0.66	-0.12	-1.73	active
H1-5 (GeneID 3009)	vorinostat-resistant HCT116 cells with etoposide	2.06	0.9	0.45	-0.16	active
H1-5 (GeneID 3009)	vorinostat-resistant HCT116 cells with vorinostat	2.3	0.86	0.2	-0.32	active
MED28 (GeneID 80306)	LIM1215 cells with etoposide	1.71	1	-0.38	0.5	active
MED28 (GeneID 80306)	LIM1215 cells with vorinostat	2.56	0.84	0.64	-0.56	active
MED28 (GeneID 80306)	SW480 cells with etoposide	3.13	0.78	0.82	-0.57	inactive
MED28 (GeneID 80306)	SW480 cells with vorinostat	1.52	0.66	-0.4	-1.37	inactive
MED28 (GeneID 80306)	SW620 cells with etoposide	1.08	0.87	-0.16	-0.22	inactive
MED28 (GeneID 80306)	SW620 cells with vorinostat	1.47	0.92	0.31	0.02	inactive
MED28 (GeneID 80306)	vorinostat-resistant HCT116 cells with etoposide	3.72	1	2.6	0.44	active
MED28 (GeneID 80306)	vorinostat-resistant HCT116 cells with vorinostat	2.69	0.93	0.69	0.1	active
